Laboratory results published in PubChem BioAssay AID743266 (National Center for Advancing Translational Sciences (NCATS), 2014).
Hit rate of the full screen: of about 410,000 compounds, about 310 (0.076%) were called active. Inconclusive results, whose numbers are uncertain, are shown with a selection of clear calls. Calls follow the shape of the dose curve; as a rule, active = well fitted activation curve with a large enough effect; inconclusive = small, poorly fitted or top-dose-only effect, or another doubt; inactive = no such curve, though single readings can be large or run the other way. A potency beside an inconclusive call is a rough fit, not a confirmed value.

Sequences of proteins named here, by UniProt entry; tags and fusion partners are left off. A change or cut given only in a name is not applied to a line headed by its entry.
UniProt Q03431: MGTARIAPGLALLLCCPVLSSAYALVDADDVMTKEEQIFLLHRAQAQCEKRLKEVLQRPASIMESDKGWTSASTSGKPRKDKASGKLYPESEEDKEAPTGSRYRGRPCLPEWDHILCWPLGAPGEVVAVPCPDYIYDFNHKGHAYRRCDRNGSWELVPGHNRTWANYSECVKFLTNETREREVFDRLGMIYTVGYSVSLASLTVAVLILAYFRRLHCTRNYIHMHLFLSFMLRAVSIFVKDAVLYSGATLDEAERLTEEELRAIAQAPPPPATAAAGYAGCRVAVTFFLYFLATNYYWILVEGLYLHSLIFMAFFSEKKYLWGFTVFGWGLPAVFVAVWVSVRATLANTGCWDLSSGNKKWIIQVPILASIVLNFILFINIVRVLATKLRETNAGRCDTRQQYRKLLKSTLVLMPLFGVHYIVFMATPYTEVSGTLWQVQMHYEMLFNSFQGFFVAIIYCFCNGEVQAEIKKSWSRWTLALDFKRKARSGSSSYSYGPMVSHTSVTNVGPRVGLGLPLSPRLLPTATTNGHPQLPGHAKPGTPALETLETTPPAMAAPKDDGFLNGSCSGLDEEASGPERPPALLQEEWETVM

Target: Parathyroid hormone/parathyroid hormone-related peptide receptor (Homo sapiens) (UniProt Q03431)
Experiment: qHTS for PTHR1 Agonists: Primary Screen; also: nearly all actives have a fitted effect of over 55% in size
Details: HEK293 GP2 PTHR1 cells, GloSensor cAMP luminescence, 1 h; activation: at 115 µM (top of the series) unless noted; series mostly up to 115 µM
Outline: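 HEK-293-derived GP2 cells expressing PTHR1 and a GloSensor cAMP reporter, 3,000/well, plated overnight, given luciferin plus IBMX (each 0.5 mM as added) for 1 h at 37 °C, then compound for 1 h at 37 °C. Luminescence was read after 15 min at room temperature.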
Potency is read from the fitted curve at half-maximal effect.

outcome, inactive:
O=C1Nc2cc(C(=O)NCCCN3CCCC3)ccc2S/C1=C\c1ccccc1
O=C(CN1CCCC1)N1CCCc2ccccc21
CN(Cc1nc2ccccc2[nH]1)C(=O)C1CCC(=O)N(CCc2cccc(F)c2)C1 (centres undefined)
O=S(=O)(c1ccc2[nH]c3c(c2c1)CCCC3)N1CCN(c2cccc(C(F)(F)F)c2)CC1

Potency, inconclusive:
Cc1nnc(SCC(=O)NC2CCCc3ccccc32)n1-c1ccccc1 (centres undefined) 8.91 µM [activator, partial curve, poor fit]
CCN(CC)Cc1nc2c(c(=O)[nH]1)C1(CCCCC1)Cc1ccccc1-2 14.1 µM [activator, partial curve]
Cc1ccc2nc(Nc3ccccc3)cc(C)c2c1 158 µM [activator, single point]
CC(C)(C)NCC(O)c1cc(O)cc(O)c1 (centres undefined) 3.55 µM [activator, full curve]
COC(=O)c1c(NC(=O)CN2CCN(c3ncccn3)CC2)sc(C(N)=O)c1C 44.7 µM [activator, partial curve, poor fit]
CC(C)(C)NS(=O)(=O)c1ccc2c(c1)oc(=O)c1cc(S(=O)(=O)NC(C)(C)C)ccc12 2.82 µM [activator, partial curve]
N#Cc1ccccc1OCC(=O)OCC(=O)NCc1ccc2c(c1)OCO2 79.4 µM [activator, partial curve, poor fit]
Cc1ccc(C(=O)N/C(=C\c2cccnc2)C(=O)N2CCCC2)cc1 122 µM [activator, partial curve, poor fit]
CN(C(=O)c1ccco1)c1nc(CC(=O)Nc2ccccc2)cs1 22.4 µM [activator, partial curve, poor fit]
Cc1nc(C)n(CC(O)COc2ccc3cc(Br)ccc3c2)n1 (centres undefined) 35.5 µM [activator, single point]
O=C(Cn1cnc2c(nnn2Cc2ccc(F)cc2)c1=O)NCC1CCCO1 (centres undefined) 2.82 µM [activator, partial curve, poor fit]
CCOc1ccc(N(CC(=O)Nc2ccc(C)cc2C)S(C)(=O)=O)cc1 100 µM [activator, single point]
CCOC(=O)C1CCN(CC(=O)N(CC(C)C)c2c(N)n(CC(C)C)c(=O)[nH]c2=O)CC1 7.08 µM [activator, full curve, poor fit]
COc1cc(NC(=O)CNC(=O)Cn2ccc3ccccc3c2=O)cc(OC)c1OC 7.94 µM [activator, partial curve]
CCOC(=O)N1CCc2c(sc3c2c(=O)n(-c2ccc(Cl)cc2)c(=O)n3Cc2cccc(OC)c2)C1 126 µM [activator, partial curve, poor fit]
COc1ccc(N(C)S(=O)(=O)c2ccc3c(c2)NC(=O)CC(=O)N3)c(OC)c1 126 µM [activator, single point]
CN(Cc1cn(C)nc1-c1ccccc1F)CC1CCCCO1 (centres undefined) 141 µM [activator, single point]
O=C(COCc1cc(-c2ccco2)on1)Nc1cccc(O)c1 25.1 µM [activator, partial curve, poor fit]
Cc1ccc2sc(N(CCN(C)C)C(=O)c3ccc4ccccc4c3)nc2c1C 15.8 µM [activator, partial curve, poor fit]
COC(=O)CC1=NC(=O)CS1 15.8 µM [activator, partial curve]
CC(C)(C)NC(=O)C(c1ccncc1)N(C(=O)c1csnn1)c1ccccc1 (centres undefined) 126 µM [activator, partial curve, poor fit]
O=C(Nc1nccs1)c1ccc(NC(=O)C2CC=CCC2C(=O)O)cc1 (centres undefined) 50.1 µM [activator, partial curve, poor fit]

Random excerpt: 2 records from the list, in no set order.
Potency, inconclusive:
O=C(Nc1nccs1)c1ccc(NC(=O)C2CC=CCC2C(=O)O)cc1 (centres undefined) 50.1 µM [activator, partial curve, poor fit]
Cc1nc(C)n(CC(O)COc2ccc3cc(Br)ccc3c2)n1 (centres undefined) 35.5 µM [activator, single point]

Following part:

activation, inconclusive:
C/C(=N\Nc1nc(N)cc(Cl)n1)c1cccc(N)c1 -46.3% [activator]
Cc1ccn2c(=O)c(C(=O)NCCc3ccc(S(N)(=O)=O)cc3)c(O)nc2c1 35.3% [activator]
Cc1ccc2c(C(=O)CN3CCOCC3)c(C)[nH]c2c1 35.9% [activator] [at 57.5 µM]
CCCCOc1ccc(C(=O)Nc2sc3c(c2C(=O)OCC)CCCCC3)cc1 65.8% [activator]
Cc1cc(C)cc(Nc2nc3ccccc3n3cnnc23)c1 30.7% [activator]
COCCCNC(=O)c1ccc(Cn2c(=O)c3ccccc3n(CC(=O)Nc3ccc(C)cc3C)c2=O)cc1 -52.7% [activator]
CCCCNC(=O)C1c2ccccc2OCC(=O)N1CC(F)(F)F (centres undefined) 49.5% [activator]
Cn1c(=O)c(=O)n(C)c2cc(S(=O)(=O)CCC(=O)Nc3cccc(C(F)(F)F)c3)ccc21 40.3% [activator]

activation, inactive:
COC(=O)C1=C(C)OC(N)=C(C#N)C1c1ccc(OC)c(CSc2ccccn2)c1 (centres undefined) -9.96% [at 57.5 µM]
CNc1c(C(=O)O)ccc2c1C(=O)c1ccccc1C2=O -4.06%
O=C(c1ccco1)N1CCN(C(=O)c2cccs2)CC1 -12.3% [at 57.5 µM]
CC(NC(=O)NC12CC3CC(CC(C3)C1)C2)c1ccc2c(c1)OCO2 (centres undefined) -24.8%
O=C1C(Cl)=C(N2CCOCC2)C(=O)N1c1ccc(Br)cc1 -1.5%
CCOc1ccccc1C(=O)Nc1cc(Cl)ccc1O -42.4%
COc1cc(OC)c(N(C)C(=O)C2CCCN(c3ncnc4c3nc3n4CCCCC3)C2)cc1Cl (centres undefined) -1.35%
CC(C)(C)N1CC(c2nc3ccccc3n2CCOc2ccccc2)CC1=O (centres undefined) -0.168% [at 57.5 µM]
CC(NC(=O)c1cccc(S(=O)(=O)N2CCN(Cc3ccccc3)CC2)c1)c1ccc(Br)cc1 (centres undefined) -12.8%
COc1ccc(NC(=O)Cn2c(=O)n(Cc3ccco3)c(=O)c3cc(OC)c(OC)cc32)cc1 -7.07%
